The source of these data is patent US6355615B1 (Bayer Aktiengesellschaft, priority 1997, dated 2002).

The data set is described as follows: peptide synthesis. Conditions: late stage modification step.
In the case of “8,20-dibenzyl-5,11,17,23-tetraisobutyl-2,4,10,14,16,22-hexamethyl-1,7,13,19-tetraoxa-4,10,16,22-tetraaza-cyclotetracosan-6,9,12,18,21,24-hexaone”, the step yield is reported as 34 to 41% of theory.
Then “8-(4-aminobenzyl)-20-(2-aminobenzyl)-5,11,17,23-tetraisobutyl-2,4,10,14,16,22-hexamethyl-1,7,13,19-tetraoxa-4,10,16,22-tetraazatetracosan-6,9,12,18,21,24-hexaone”, with 11%.
Then “8,20-bis-[4-(1-pyrrolyl)-benzyl]-5,11,17,23-tetraisobutyl-2,4,10,14,16,22-hexamethyl-1,7,13,19-tetraoxa-4,10,16,22-tetraaza-cyclotetracosan-6,9,12,18,21,24-hexaone”, with 22% of theory.
